Data taken from paper PMC12677699, “Utilizing Proteolytic‐Resistant Nano‐Short Peptide Based on Naphthyl Tail‐Anchored to Combat Bacterial Infections” (Advanced Science, 2025).
Non-standard residues stand in square brackets, D forms with d. Residues, ends and D or L forms follow the SMILES beside them. ξ: configuration not given here. ξAhp(2) = CCCCCC(N)C(=O)O

Assay: Geometric mean of selectivity index (GMSI)
Conditions: SI = HC20 or IC50 / GMMIC; 256 μM used where no 20% hemolysis or 50% cell death at > […]

Row | Structure (SMILES) | GMSI (geometric mean of the selectivity index)
1 | N=C(N)NCCC[C@H](NC(=O)[C@@H](CCCNC(=N)N)NC(=O)[C@H](Cc1cccc2ccccc12)NC(=O)[C@H](Cc1cccc2ccccc12)NC(=O)[C@H](Cc1cccc2ccccc12)NC(=O)[C@@H](N)Cc1cccc2ccccc12)C(=O)N[C@@H](CCCNC(=N)N)C(=O)N1CCC[C@H]1C(=O)O (stereo in doubt) [Peptide N4] | 50.8
2 | CCCCCC(N)C(=O)NC(CCCCC)C(=O)NC(CCCCC)C(=O)NC(CCCCC)C(=O)N[C@H](CCCNC(=N)N)C(=O)N[C@@H](CCCNC(=N)N)C(=O)N[C@@H](CCCNC(=N)N)C(=O)N1CCC[C@H]1C(=O)O (some centres unmarked) [Peptide B4] (H-[ξAhp(2)][ξAhp(2)][ξAhp(2)][ξAhp(2)][dR]RRP-OH; N-terminus assumed) | 9.19
